Results published in PubChem BioAssay AID1347076 (National Center for Advancing Translational Sciences (NCATS), 2019).
Out of some 400,000 compounds screened, about 13,000 (3.2%) were called active. Inconclusive means that the source gave no clear call. Such entries were picked first, then a sample of the others. Calls come from the whole dose curve; as a rule, active = well fitted cell-killing curve with a large enough effect; inconclusive = small, poorly fitted or top-dose-only effect, or effect the other way; inactive = flat fitted curve, though single readings scatter. Where the call is inconclusive, the potency comes from a doubtful curve fit.

experiment: qHTS assay for MDR1-selective chemotherapeutics: Primary screen using the drug-selected MDR subline cells KB-V1; details: KB-V1 MDR cells viability, CellTiter-Glo, 72 h; activity change, negative = cytotoxicity: at 46.1 µM (top of the series); note: nearly all actives have a fitted effect of over 60% in size
Summary of the method: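 KB-V1, DMEM (no phenol red) + 10% FBS; cpd pin-transferred, titration series; 72 h, 37 degrees C; CellTiter-Glo, luminescence. Data normalized, curve-fit.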
% is set by controls: 0 for no effect and ±100 for the full control effect; potency is the fitted concentration of half-maximal effect.

SMILES	Potency	activity change, negative = cytotoxicity
N#Cc1c(-c2ccccc2)c(-c2ccccc2)n(Cc2ccco2)c1NC(=O)c1cccs1	active: 5.62 µM	
O=C(Nc1ccccc1)OC1CCC2CC1CCC2OC(=O)Nc1ccccc1 (stereo unspecified)	inconclusive: 18.4 µM [cytotoxic, partial curve, poor fit]	
CC(C)CC(=O)N1CC=CC[C@@H](c2ccc(Cl)cc2)N(Cc2ccc(Cl)cc2)C(=O)[C@@H]1Cc1ccccc1	inconclusive: 29.1 µM [cytotoxic, single point]	
CC(C)n1cc(/C=N/NC(=O)COc2cccc3cccnc23)c2ccccc21	inconclusive: 23.1 µM [cytotoxic, single point]	
Cc1c(C(=O)OCc2ccccc2)[nH]c2c1C(=O)CC(c1ccco1)C2 (stereo unspecified)	inconclusive: 1.3 µM [cytotoxic, full curve, poor fit]	
Cc1nn(C(C)c2n[nH]c(=S)n2-c2cccc(Cl)c2)c(C)c1[N+](=O)[O-] (stereo unspecified)		inactive: -6.89%
Cc1ccc(NC(=O)c2cc(S(=O)(=O)N3CCOCC3)cs2)cc1		inactive: -13.1%
CCOC(=O)C1CCCN(CC(=O)Nc2nccs2)C1 (stereo unspecified)	inconclusive: 10.3 µM [cytotoxic, partial curve, poor fit]	
O=C(COc1cc(Cl)c(Cl)cc1Cl)NC(=O)NC1CCCC1		inactive: -5.05%
CC1=C/C(=N\NC(=S)NCCc2ccccc2)CC(C)(C)C1		inactive: 11.9%
CCN(CC)S(=O)(=O)c1cccc(NC(=O)c2cc(-c3cccs3)nn2-c2ccccc2)c1	active: 3.66 µM	
Cc1nn(-c2ccccc2)c(C)c1C(=O)OCC(=O)NC12CC3CC(CC(C3)C1)C2		inactive: -11.2%
Cc1ccc(NC(=O)c2ccc(F)cc2F)cc1		inactive: 0%
O=C(CNC(=O)C12CC3CC(CC(C3)C1)C2)N1CCN(S(=O)(=O)c2cccs2)CC1	inconclusive: 14.6 µM [cytotoxic, single point]	
O=C(NCc1nc2ccccc2[nH]1)c1cccs1		inactive: -3.68%
CC1=C(C(=O)N2CCCC(N3CCN(c4cccc(Cl)c4)CC3)C2)OCCO1 (stereo unspecified)	inconclusive: 16.4 µM [cytotoxic, partial curve]	
COc1cc(C(C)=O)ccc1OCC(=O)Nc1ccccc1N1CCCCC1	inconclusive: 29.1 µM [cytotoxic, single point]	
COc1ccc(OC)c(CCNC(=O)c2ccc3c(c2)N(Cc2ccccc2)CCS3)c1	inconclusive: 5.8 µM [cytotoxic, partial curve]	
Cc1ccc(NC(=O)c2cccc(C(=O)OC(C)C)n2)c(Br)c1		inactive: -0.31%
Cc1cc(C)n(-c2ncnc3ccccc23)n1	inconclusive: 5.8 µM [rising, full curve]	
O=C(NCC1CCCO1)c1cc2n(n1)C(C(F)(F)F)CC(c1ccc(F)cc1)N2 (stereo unspecified)	active: 20.6 µM	
O=C(Cn1cnc2c(nnn2Cc2ccccc2F)c1=O)NCC1CCCO1 (stereo unspecified)		inactive: -5.23%
CC1CCCCN1C(=O)C1COc2ccccc2O1 (stereo unspecified)		inactive: 18.7%
Cc1cc(=O)oc2c(C)c(OCC(=O)N3CCN(c4cccc(Cl)c4)CC3)ccc12		inactive: -19.4%

SMILES	Potency	activity change, negative = cytotoxicity
CC1=CC(C)(C)Nc2ccc(OC(=O)C(C)N3C(=O)c4ccccc4C3=O)cc21 (stereo unspecified)	inconclusive: 25.9 µM [cytotoxic, single point]	
CN(C)C(=O)c1c([N+](=O)[O-])ncn1C	inconclusive: 29.1 µM [rising, single point]	
COc1ccc(N2CCC(CNC(=O)Nc3ccccc3)C2)cc1 (stereo unspecified)	active: 16.4 µM	
CCOc1ccc(NC(=S)NN(C)C(=S)Nc2ccc(OCC)cc2)cc1	inconclusive: 20.6 µM [cytotoxic, single point]	
COc1cccc(Cn2nc3c4cc(F)ccc4n(Cc4ccc(F)cc4)cc-3c2=O)c1		inactive: -4.67%
c1cc2ccc3ccc(-n4cnnn4)c4ccc(c1)c2c34	inconclusive: 20.6 µM [cytotoxic, single point]	
Cc1cc(/C=c2\sc3nc4ccccc4n3c2=O)c(C)n1-c1ccc(C(=O)O)cc1	inconclusive: 23.1 µM [cytotoxic, single point]	
N#Cc1c(NCCN)nc(-c2ccccc2)c2c1CCCC2	inconclusive: 29.1 µM [cytotoxic, single point]	
Cc1ccc(N2C(=O)N(CC(=O)Nc3cc(Cl)ccc3C)C(=O)C2C)cc1 (stereo unspecified)	inconclusive: 16.4 µM [cytotoxic, partial curve]	
Cn1c(SCC(=O)Nc2ccc3c(c2)OCCO3)nnc1-c1ccccn1	inconclusive: 18.4 µM [cytotoxic, partial curve, poor fit]	
Cc1ccc(CN2CCC(n3nccc3NC(=O)CCCc3ccccc3)CC2)o1	inconclusive: 2.31 µM [cytotoxic, full curve, poor fit]	
N#CC1CC(c2ccc([N+](=O)[O-])cc2)=NN1c1ccc([N+](=O)[O-])cc1 (stereo unspecified)	inconclusive: 18.4 µM [rising, partial curve]	
CCCC1c2ccc(C)n2CCN1C(=O)Nc1ccccc1Cl (stereo unspecified)		inactive: 1.05%
CC(C)(C)OC(=O)N1CCC(c2c(C(=O)N3CCN(c4cccc(Cl)c4)CC3)cnn2-c2cccc(Cl)c2)CC1		inactive: -27.3%
CNc1oc(-c2ccccc2)nc1C#N		inactive: -21.8%
Cc1cc(N2CCN(C(C(=O)NC3CCCC3)c3ccc(-c4ccccc4)cc3)CC2)c2ccccc2n1 (stereo unspecified)	active: 20.6 µM	
O=C(N[C@H]1CC[C@H](CCNS(=O)(=O)c2ccc(Cl)cc2)O[C@@H]1CO)c1cccc(F)c1	inconclusive: 16.4 µM [cytotoxic, single point]	
O=C(O)c1c(Cl)c(Cl)c(Cl)c(Cl)c1C(=O)N1CCOCC1	inconclusive: 29.1 µM [rising, single point]	
O=C(C(=O)c1cc(Br)ccc1O)c1cc(Br)ccc1O	inconclusive: 18.4 µM [cytotoxic, single point]	
O=[N+]([O-])c1ccc(NC2CCCC2)cc1	inconclusive: 20.6 µM [cytotoxic, single point]	
CC[n+]1c(C)n(C)c2cc(S(=O)(=O)N(C)C)ccc21		inactive: 0.478%
COC(=O)[C@@]1(Cc2ccccc2)[C@H]2C(=O)N(C)C(=O)[C@H]2[C@H]2CN=C(SCc3ccc(C#N)cc3)N21		inactive: 2.34%
CC(C)(C)c1cc(Cl)c(O)c(NC(=S)NC(=O)c2cccnc2)c1	inconclusive: 4.61 µM [cytotoxic, full curve]	
COC(=O)c1c(NC(=O)CCl)sc(C(=O)N2CCOCC2)c1C	inconclusive: 29.1 µM [cytotoxic, single point]	

SMILES	Potency	activity change, negative = cytotoxicity
CC(C)(C)OC(=O)C[C@H]1C/C=C\C[C@H](CC(=O)NCCO)C(=O)NC[C@H](c2ccccc2)OC1=O	inconclusive: 18.4 µM [rising, single point]	
CN(C(=O)Nc1ccc(Cl)cc1Cl)[C@H]1c2cc(Br)ccc2OC[C@H]1CO	inconclusive: 18.4 µM [cytotoxic, single point]	
CCCOC(=O)Nc1c(C)cccc1C(C)C	inconclusive: 20.6 µM [rising, single point]	
CCOP(=O)(OCC)C(NC(=O)Nc1ccc(Cl)c(Cl)c1)c1ccccc1 (stereo unspecified)	inconclusive: 20.6 µM [cytotoxic, single point]	
CC(C)(C)c1ccc(OCCC(=O)OCC(=O)NC(=O)NC2CCCC2)cc1		inactive: 4%
COc1cccc(-c2cc3c(-n4cccc4)ncnc3o2)c1	inconclusive: 29.1 µM [cytotoxic, single point]	
O=C(Nc1cccc(Cl)c1)c1nc[nH]c1C(=O)NCCCCNC(=O)c1[nH]cnc1C(=O)Nc1cccc(Cl)c1	inconclusive: 18.4 µM [rising, partial curve, poor fit]	
O=C(O)c1ccccc1NS(=O)(=O)c1cccc(C(F)(F)F)c1		inactive: 10.4%
CCOc1ccc(OCCCC(=O)N(C)CC(=O)Nc2ccc(N3CCOCC3)cc2)cc1	inconclusive: 13 µM [cytotoxic, partial curve]	
Cc1ccn2cc(CCNS(=O)(=O)c3ccc4ccccc4c3)nc2c1	inconclusive: 29.1 µM [cytotoxic, single point]	
O=C(NCCC1CCCCN1S(=O)(=O)c1ccccc1)C(=O)NC1CC1 (stereo unspecified)		inactive: 5.58%
COc1cccc(C(c2sc3nc(-c4ccco4)nn3c2O)N2CCC(C)CC2)c1 (stereo unspecified)		inactive: 2.29%
O=C(CSc1ccnc(=O)[nH]1)NCc1ccc(F)cc1	inconclusive: 2.31 µM [rising, full curve]	
Cc1occc1C(=O)NNC(=O)C(c1ccccc1)c1ccccc1	inconclusive: 16.4 µM [cytotoxic, partial curve]	
NC(=O)c1ccc(NC(=O)COC(=O)CC2Sc3ccccc3NC2=O)cc1 (stereo unspecified)	inconclusive: 13 µM [rising, partial curve, poor fit]	
Cc1ccccc1N1CCN(C(=S)c2ccc(-c3cccc([N+](=O)[O-])c3)o2)CC1		inactive: -24%
O=C(c1cccc(Cl)c1)N1CCC2CC1c1cc(N3CCOCC3)ccc12 (stereo unspecified)		inactive: 0.0002%
O=C(Nc1ccccc1C(=O)NCCN1CCOCC1)c1ccco1	inconclusive: 14.6 µM [cytotoxic, partial curve]	
CCOc1ccc(-c2cc3c(=O)n(Cc4nc(-c5ccc(OCC)c(OC)c5)oc4C)ccn3n2)cc1Cl		inactive: -0.964%
CC(=O)Nc1ccc(-c2csc(Nc3cc(C)ccn3)n2)cc1	inconclusive: 4.11 µM [cytotoxic, partial curve]	
Cc1cccc2c(=O)cc(CSc3ccccc3NC(=O)c3cccc(Cl)c3)[nH]c12		inactive: 1.46%
CCC(=NCCc1c(C)[nH]c2ccc(OC(F)(F)F)cc12)C1=C(O)CC(c2ccccc2)CC1=O (stereo unspecified)	active: 2.91 µM	
C=CCn1c(O)c(C2=c3ccccc3=NC2=O)sc1=Nc1ccc(O)cc1	inconclusive: 29.1 µM [cytotoxic, single point]	

Reprinted from the results shown (3 entries):
SMILES	Potency	activity change, negative = cytotoxicity
CCOc1ccc(-c2cc3c(=O)n(Cc4nc(-c5ccc(OCC)c(OC)c5)oc4C)ccn3n2)cc1Cl		inactive: -0.964%
CC(=O)Nc1ccc(-c2csc(Nc3cc(C)ccn3)n2)cc1	inconclusive: 4.11 µM [cytotoxic, partial curve]	
Cc1cccc2c(=O)cc(CSc3ccccc3NC(=O)c3cccc(Cl)c3)[nH]c12		inactive: 1.46%
